Test results published in publication PMC12165043, “Neophytadiene, a Plant Specialized Metabolite, Mediates the Virus‐Vector‐Plant Tripartite Interactions” (Advanced Science, 2025).

Test system: BtOBP1-8 genes
Assay: Transcriptional response of BtOBP1-8 to neophytadiene (qRT-PCR)
Details: Fig 7A
Method: RNA was extracted using trizol reagent (Invitrogen, Waltham USA) and dissolved in double‐deionized water; cDNA was synthesized from total RNA (1 µg) using HiScript 1st Strand cDNA Synthesis kit (Vazyme, Nanjing China). Real‐time qPCR was conducted using the MonAmp SYBR Green qPCR Mix (Thermofisher, Waltham USA). Actin and UBI were selected as the housekeeping genes (Table S1, Supporting Information). Each experiment was repeated at least three times and relative gene expression levels calculated for analysis using the 2^−∆∆Ct method.
To investigate the expression profiles of BtOBP1‐8 genes in B. tabaci under neophytadiene treatment, the following experiment was performed. Tomato plants with an identical growth cycle were selected as the treatment group (sprayed with 3 µg g^−1 neophytadiene) and the control group (treated with water only). The treated plants were then placed in a 10 L hermetic container. Once the volatilization reached equilibrium, 500 pairs of adults were introduced into the closed container and fumigated under airtight conditions. Subsequently, the whiteflies were sampled at distinct time points (0, 24, 48, 72, 96 h) respectively for the determination of expression levels.

For `C=CC(=C)CCCC(C)CCCC(C)CCCC(C)C` (centres unmarked) [Neophytadiene], the OBP6 relative expression (24h) was 0.3158, 0.7629, 0.6354, the OBP8 relative expression (24h) was 0.804, 0.4233, 0.117 and the OBP5 relative expression (48h) was 1.717 and 0.72. The OBP6 relative expression (48h) was 0.1156, 0.2913, 0.2172, the OBP8 relative expression (48h) was 0.08092, 0.185, 0.2953 and the OBP1 relative expression (72h) was 0.3631, 0.3821, 0.8787. The OBP2 relative expression (72h) was 6.04, 4.95, 2.53, the OBP3 relative expression (72h) was 1.49, 3.64, 2.29 and the OBP5 relative expression (72h) was 1.327, 0.964, 0.5766. For the same compound, the OBP7 relative expression (72h) was 0.02778, 0.1077, 0.03582, the OBP8 relative expression (72h) was 0.9037, 0.2535, 0.7951 and the OBP1 relative expression (96h) was 1.472, 0.5918, 0.9874. The OBP2 relative expression (96h) was 5.89, 6.05, 2.96 and the OBP5 relative expression (96h) was 1.738, 1.309, 0.7564.

Some entries of the source have several records that differ or are many. The list is limited to them. There may be further records. Results that share an entry differ, and nothing given here explains why; some may be repeats, others may stem from another dose, organism or construct than stated.
